Source: article PMC7937953
Results are given in words; binding and its absence hold for the method and conditions named. In cells and extracts the contact can be indirect. Some results given as binding are weak or reduced against the parent protein; the word gives no strength. For some of these results: Tags and fused reporters may be left off the sequences shown.

Chains of the proteins cited; added tags and fusions are not shown.
UniProt Q12929: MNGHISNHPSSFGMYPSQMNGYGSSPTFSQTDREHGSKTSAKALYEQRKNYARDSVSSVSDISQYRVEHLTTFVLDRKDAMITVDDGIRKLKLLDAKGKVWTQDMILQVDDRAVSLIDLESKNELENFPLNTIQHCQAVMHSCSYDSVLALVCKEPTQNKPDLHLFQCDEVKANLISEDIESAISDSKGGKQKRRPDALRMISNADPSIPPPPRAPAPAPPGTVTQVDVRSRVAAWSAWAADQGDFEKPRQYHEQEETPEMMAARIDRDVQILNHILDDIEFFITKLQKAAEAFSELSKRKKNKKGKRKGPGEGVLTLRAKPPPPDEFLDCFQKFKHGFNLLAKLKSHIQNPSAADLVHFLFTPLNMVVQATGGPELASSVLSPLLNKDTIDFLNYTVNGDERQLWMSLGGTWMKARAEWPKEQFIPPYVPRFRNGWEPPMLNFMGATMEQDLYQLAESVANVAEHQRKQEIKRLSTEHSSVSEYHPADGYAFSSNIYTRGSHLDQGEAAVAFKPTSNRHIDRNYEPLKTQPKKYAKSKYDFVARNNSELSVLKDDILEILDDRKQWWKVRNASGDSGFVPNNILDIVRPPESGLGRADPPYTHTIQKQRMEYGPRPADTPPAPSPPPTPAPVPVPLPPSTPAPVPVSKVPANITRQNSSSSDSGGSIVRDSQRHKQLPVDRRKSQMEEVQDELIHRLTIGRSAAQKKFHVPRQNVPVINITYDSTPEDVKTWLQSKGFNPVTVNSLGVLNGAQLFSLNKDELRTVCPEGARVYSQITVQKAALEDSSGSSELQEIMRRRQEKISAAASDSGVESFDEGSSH

Key:
[1] = biological target: T1, GST-fused MLK3 (1–104 aa) (human) (UniProt Q16584); assay: pull-down; purified GST-fused MLK3 segments on beads incubated with lysates of pcDNA3.1-EPS8-transfected HEK293 cells, 2 h at 4°C; immunoblot; only the target purified
T1 sequence: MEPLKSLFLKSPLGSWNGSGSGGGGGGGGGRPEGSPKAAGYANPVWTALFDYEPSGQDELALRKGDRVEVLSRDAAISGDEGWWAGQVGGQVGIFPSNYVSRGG

[2] = biological target: T2, GST-fused MLK3 (632–847 aa) (human) (UniProt Q16584); assay: as above
T2 sequence: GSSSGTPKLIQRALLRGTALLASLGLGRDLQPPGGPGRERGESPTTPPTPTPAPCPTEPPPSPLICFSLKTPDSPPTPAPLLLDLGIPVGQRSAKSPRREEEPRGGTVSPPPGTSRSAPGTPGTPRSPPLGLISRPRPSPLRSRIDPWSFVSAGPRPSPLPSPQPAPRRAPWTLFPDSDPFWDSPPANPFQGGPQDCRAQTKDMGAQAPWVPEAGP

[3] = biological target: Myc-MLK3 (mixed lineage kinase 3), overexpressed in U251 cells (human) (UniProt Q16584); assay: co-IP; U251 cells co-transfected with pcDNA3.1-Myc-MLK3 and pcDNA3.1-His-EPS8 for 24 h; lysates immunoprecipitated with anti-Myc or control IgG; EPS8 detected by immunoblot
[4] = biological target: endogenous EPS8 in U251 cells (human (endogenous in U251)) (UniProt Q12929); assay: co-IP; endogenous proteins in U251 cells; lysates immunoprecipitated with anti-EPS8 or control IgG; MLK3 detected by immunoblot

EPS8 expressed in HEK293 cells (pcDNA3.1-EPS8) (from UniProt Q12929 1-822)
binding [1]: binds | binding [2]: binds

His-EPS8 (epidermal growth factor receptor kinase substrate 8), overexpressed in U251 cells (from UniProt Q12929 1-822)
binding [3]: binds

endogenous MLK3 in U251 cells (from UniProt Q16584 1-847)
binding [4]: binds
